Residue numbers refer to the chain shown, from its start. Results are given in words; binding and its absence hold for the method and conditions named. For some assays here: Binding seen in cells or lysates may run through a third protein. Some binding calls cover weakened binding; strength is not graded here. For some assays here: Sequences can lack the tags named with a protein. Each block holds one binder with its values, some of them ahead of it.
How the values were obtained:
[1] = target: T1, Sin3A, two-hybrid fusion (mouse) (UniProt Q60520); assay: two-hybrid
T1 sequence: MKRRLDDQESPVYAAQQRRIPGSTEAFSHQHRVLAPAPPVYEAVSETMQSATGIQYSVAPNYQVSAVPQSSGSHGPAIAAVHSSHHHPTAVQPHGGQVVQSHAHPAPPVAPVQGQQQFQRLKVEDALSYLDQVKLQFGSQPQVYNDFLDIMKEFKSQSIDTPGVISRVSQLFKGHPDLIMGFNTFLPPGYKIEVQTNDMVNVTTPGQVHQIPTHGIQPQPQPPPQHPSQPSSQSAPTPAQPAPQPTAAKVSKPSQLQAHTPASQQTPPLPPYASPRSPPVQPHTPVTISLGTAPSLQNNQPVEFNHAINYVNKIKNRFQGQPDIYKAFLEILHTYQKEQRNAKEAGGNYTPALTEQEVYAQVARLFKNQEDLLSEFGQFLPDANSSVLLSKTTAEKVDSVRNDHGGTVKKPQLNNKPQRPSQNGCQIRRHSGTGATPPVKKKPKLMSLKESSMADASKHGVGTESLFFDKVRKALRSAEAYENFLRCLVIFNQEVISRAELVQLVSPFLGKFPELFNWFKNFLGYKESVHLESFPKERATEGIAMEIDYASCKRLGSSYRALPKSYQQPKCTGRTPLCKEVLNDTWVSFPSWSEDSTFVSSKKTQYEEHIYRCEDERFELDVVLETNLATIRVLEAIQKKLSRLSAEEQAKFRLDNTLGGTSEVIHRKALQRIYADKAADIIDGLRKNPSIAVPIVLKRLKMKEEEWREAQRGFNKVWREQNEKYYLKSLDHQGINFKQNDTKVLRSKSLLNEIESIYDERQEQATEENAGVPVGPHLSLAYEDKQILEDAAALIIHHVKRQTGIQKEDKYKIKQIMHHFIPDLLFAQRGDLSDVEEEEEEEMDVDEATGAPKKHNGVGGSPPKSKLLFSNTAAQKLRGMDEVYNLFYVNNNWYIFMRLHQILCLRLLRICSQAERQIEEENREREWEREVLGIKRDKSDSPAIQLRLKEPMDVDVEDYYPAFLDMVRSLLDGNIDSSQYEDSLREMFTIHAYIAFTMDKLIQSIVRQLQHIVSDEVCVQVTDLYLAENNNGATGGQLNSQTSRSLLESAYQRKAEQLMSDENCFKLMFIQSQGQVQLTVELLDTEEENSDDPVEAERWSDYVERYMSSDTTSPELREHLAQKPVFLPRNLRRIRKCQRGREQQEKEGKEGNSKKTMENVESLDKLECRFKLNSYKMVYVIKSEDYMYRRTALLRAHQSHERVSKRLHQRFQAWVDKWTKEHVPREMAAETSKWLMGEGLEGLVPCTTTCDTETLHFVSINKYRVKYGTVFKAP

Protein sequences, listed by entry. Tags and fused reporters are not part of them. Lines headed by an entry give the natural chain unless they say otherwise; changes in a name come on top.
UniProt O75376, whole entry: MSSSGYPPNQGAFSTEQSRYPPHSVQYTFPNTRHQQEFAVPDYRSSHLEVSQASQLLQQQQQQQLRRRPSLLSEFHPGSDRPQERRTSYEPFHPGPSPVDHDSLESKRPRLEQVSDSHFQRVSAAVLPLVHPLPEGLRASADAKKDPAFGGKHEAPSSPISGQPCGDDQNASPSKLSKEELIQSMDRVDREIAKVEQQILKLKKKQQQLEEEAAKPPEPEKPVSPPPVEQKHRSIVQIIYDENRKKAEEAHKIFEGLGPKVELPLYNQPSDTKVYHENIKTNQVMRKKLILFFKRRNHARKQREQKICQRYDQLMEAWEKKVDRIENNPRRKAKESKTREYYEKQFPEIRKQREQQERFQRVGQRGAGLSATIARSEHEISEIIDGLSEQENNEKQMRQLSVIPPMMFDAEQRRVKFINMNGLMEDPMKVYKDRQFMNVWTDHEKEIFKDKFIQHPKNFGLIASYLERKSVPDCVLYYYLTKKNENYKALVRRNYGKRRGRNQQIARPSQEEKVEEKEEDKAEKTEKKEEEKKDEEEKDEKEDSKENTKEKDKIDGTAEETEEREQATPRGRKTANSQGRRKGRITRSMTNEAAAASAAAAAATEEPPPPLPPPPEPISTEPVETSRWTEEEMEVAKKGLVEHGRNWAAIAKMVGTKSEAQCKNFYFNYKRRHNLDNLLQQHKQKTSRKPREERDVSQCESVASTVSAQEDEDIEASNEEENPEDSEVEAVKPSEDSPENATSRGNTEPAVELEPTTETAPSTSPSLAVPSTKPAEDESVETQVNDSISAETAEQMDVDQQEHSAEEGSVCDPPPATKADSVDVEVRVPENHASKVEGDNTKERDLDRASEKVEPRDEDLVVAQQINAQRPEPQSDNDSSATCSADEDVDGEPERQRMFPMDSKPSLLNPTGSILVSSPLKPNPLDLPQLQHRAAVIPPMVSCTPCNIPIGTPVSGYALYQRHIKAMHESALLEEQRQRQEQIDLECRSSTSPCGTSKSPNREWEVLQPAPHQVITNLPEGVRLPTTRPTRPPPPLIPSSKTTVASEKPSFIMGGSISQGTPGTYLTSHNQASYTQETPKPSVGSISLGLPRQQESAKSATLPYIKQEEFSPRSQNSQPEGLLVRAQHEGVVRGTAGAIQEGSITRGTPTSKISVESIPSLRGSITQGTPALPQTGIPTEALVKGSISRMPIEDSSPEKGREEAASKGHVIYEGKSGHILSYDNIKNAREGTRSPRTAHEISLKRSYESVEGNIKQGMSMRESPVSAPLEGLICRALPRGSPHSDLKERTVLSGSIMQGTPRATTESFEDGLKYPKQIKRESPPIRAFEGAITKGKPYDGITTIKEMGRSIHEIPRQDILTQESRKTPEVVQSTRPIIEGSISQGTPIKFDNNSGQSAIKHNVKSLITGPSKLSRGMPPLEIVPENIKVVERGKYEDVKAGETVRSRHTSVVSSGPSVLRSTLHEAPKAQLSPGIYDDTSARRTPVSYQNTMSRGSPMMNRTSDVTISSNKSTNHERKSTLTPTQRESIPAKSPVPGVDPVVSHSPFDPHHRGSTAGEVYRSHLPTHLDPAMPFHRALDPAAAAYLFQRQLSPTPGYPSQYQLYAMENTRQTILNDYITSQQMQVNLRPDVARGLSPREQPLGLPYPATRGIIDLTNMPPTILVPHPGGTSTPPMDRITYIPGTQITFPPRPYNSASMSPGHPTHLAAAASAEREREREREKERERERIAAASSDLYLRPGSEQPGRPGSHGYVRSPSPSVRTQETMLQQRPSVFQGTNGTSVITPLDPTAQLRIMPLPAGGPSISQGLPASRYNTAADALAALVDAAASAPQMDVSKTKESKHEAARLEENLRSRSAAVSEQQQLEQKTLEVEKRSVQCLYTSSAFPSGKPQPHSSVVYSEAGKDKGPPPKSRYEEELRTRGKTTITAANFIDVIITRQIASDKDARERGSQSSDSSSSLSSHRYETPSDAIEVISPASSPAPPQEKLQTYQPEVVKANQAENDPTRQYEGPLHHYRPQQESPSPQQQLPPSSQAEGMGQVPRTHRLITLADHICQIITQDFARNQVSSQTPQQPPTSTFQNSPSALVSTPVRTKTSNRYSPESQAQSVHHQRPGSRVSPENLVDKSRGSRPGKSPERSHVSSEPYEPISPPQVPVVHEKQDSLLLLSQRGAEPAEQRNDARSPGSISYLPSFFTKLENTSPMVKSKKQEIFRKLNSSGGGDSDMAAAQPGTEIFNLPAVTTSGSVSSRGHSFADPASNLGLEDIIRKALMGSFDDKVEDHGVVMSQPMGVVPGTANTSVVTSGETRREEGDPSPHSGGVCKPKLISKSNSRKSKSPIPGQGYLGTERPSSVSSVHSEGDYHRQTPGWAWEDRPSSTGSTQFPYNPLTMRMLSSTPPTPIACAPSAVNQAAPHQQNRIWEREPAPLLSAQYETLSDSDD

[2] = target: T2, NCoR1 carboxy-terminal (C) domain (NCoR1-C) (mouse) (UniProt Q60974); assay: two-hybrid
T2 sequence: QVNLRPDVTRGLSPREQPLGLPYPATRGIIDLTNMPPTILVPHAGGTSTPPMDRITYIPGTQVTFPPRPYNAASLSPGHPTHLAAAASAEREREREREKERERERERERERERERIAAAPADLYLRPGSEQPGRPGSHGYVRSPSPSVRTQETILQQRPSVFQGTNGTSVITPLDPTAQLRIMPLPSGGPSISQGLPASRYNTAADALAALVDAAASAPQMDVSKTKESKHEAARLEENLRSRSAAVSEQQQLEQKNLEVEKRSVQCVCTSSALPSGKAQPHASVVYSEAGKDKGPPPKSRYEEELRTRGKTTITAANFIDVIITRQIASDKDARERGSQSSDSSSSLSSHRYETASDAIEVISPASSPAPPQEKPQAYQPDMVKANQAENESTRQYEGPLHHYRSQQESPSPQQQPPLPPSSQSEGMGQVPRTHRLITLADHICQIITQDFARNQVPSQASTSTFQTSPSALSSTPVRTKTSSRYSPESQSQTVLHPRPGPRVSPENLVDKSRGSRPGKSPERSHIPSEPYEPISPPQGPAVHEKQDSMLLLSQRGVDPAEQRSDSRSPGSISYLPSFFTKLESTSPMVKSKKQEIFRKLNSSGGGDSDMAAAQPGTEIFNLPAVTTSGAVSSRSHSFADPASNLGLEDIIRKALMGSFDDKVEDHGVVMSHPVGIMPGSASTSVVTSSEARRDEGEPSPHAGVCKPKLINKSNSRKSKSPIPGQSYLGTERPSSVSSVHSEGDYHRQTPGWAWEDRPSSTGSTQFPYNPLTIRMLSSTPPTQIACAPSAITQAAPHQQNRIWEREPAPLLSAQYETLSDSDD

[3] = target: nuclear receptor corepressor-1 (NCoR1), endogenous (human (endogenous in HUDEP-2)) (UniProt O75376); assay: co-IP
[4] = target: T3, TR4 (NR2C2), two-hybrid fusion (UniProt P49117); assay: two-hybrid
T3 sequence: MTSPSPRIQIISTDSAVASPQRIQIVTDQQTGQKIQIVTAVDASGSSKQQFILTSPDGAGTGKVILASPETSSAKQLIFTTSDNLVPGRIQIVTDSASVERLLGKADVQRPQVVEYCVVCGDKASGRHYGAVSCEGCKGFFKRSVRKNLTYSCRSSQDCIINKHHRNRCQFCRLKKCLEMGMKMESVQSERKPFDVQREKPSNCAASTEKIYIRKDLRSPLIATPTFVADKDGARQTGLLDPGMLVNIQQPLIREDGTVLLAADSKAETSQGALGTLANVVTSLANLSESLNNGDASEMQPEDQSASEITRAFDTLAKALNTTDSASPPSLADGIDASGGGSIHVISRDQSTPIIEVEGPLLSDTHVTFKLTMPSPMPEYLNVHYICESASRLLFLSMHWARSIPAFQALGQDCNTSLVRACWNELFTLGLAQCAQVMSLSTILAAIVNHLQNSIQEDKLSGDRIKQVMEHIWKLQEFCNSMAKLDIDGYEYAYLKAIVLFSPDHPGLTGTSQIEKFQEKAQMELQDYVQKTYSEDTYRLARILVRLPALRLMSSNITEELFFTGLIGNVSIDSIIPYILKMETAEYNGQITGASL

[5] = target: T4, TR2 (NR2C1), two-hybrid fusion (UniProt Q505F1); assay: two-hybrid
T4 sequence: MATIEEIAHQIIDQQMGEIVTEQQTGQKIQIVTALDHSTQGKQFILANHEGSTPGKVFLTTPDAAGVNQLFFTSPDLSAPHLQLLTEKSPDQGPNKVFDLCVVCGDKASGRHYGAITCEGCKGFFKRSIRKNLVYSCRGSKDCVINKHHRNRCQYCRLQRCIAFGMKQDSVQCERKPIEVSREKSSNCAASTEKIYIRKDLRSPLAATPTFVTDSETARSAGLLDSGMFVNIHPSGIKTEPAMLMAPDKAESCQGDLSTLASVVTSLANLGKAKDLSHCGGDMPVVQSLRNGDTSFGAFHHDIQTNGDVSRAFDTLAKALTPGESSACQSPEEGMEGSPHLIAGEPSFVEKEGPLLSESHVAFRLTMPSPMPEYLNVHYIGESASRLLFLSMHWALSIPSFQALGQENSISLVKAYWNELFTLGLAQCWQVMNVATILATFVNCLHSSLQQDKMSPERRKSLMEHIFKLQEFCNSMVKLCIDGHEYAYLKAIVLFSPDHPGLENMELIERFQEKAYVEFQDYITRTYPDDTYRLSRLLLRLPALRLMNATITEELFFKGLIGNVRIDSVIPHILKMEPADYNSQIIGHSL

- binding [1]: binds
- binding [2]: binds
B1: TR4 (NR2C2), two-hybrid fusion (protein, UniProt P49117 1-596)
chain: T3 sequence

- binding [3]: binds
B2: TR4 (NR2C2), endogenous (protein, UniProt P49116 1-596)
chain: T3 sequence with S47P, A106T, S156N, A263T, A296T, M299I, A326S, P328S, A337T, G510S

- binding [1]: binds
- binding [2]: binds
B3: TR2 (NR2C1), two-hybrid fusion (protein, UniProt Q505F1 1-590)
chain: T4 sequence

- binding [4]: binds
- binding [1]: binds
- binding [5]: binds
B4: NCoR1 carboxy-terminal (C) domain (NCoR1-C) (domain or fragment, UniProt Q60974 1630-2453)
chain: T2 sequence
